Measured values taken from PubChem BioAssay AID540256 (National Center for Advancing Translational Sciences (NCATS), 2011).
In all, about 300,000 compounds went through this assay and about 3,700 (1.2%) were called active. Inconclusive means that the source gave no clear call. Such entries were picked first, then a sample of the others. The call rests on the fitted dose curve; tested in HEK293 cells. Potencies of inconclusive entries are doubtful fits and often do not repeat.

Assay: qHTS for Inhibitors of binding or entry into cells for Lassa Virus; further: nearly all actives have a fitted effect of over 50% in size
Conditions: Lassa virus pseudotype entry inhibition, cell reporter; activity change, negative = inhibition: at 37.9 µM (top of the series) unless noted
On the % scale 0 is the no-effect control and ±100 the full control effect; potency means the concentration at half of the fitted maximal effect.

Q: For `COc1ccc(OCc2cc(C(=O)N(C)C3CCOC3)no2)c(Cl)c1` (stereo not drawn), which Potency is on record?
A: Its Potency is “inactive”.

Q: With `O=C(NNC1=Nc2ccccc2SC1)c1ccc(Cl)cc1` as the compound, how does the Potency read?
A: Its Potency is inconclusive: 7.08 µM [inhibitor, full curve, poor fit].

Q: Which Potency does the source give for `Cc1c(NCc2ccncc2)cccc1C(=O)O` here?
A: Its Potency is “inactive”.

Q: With `CC1(C)Oc2ccc3ccc(=O)oc3c2/C(=C/Nc2ccc(O)cc2)C1=O` as the compound, how does the Potency read?
A: The Potency was inconclusive: 2.82 µM [inhibitor, full curve].

Q: Which Potency does the source give for `COc1ccc(C(=O)NNC(=O)c2ccc3ccccc3n2)cc1` here?
A: The Potency was inconclusive: 14.1 µM [inhibitor, single point].

Q: For `CN1CCN(C(=O)COCc2cc(-c3ccc4c(c3)OCO4)on2)CC1`, which Potency is on record?
A: The Potency was inconclusive: 35.5 µM [activator, single point].

Q: With `CN1CCN(CCCNC(=O)c2ccc3c(=O)n(CCc4ccccc4)c(=O)[nH]c3c2)CC1` as the compound, how does the Potency read?
A: The Potency was “inactive”.

Q: For `CC(C)(C)CC(=O)Nc1nnc(C(F)(F)F)s1`, which Potency is on record?
A: Its Potency is “inactive”.

Q: With `CC(=O)Nc1ccc2[nH]c(C)c(CC=C(Cl)Cl)c(=O)c2c1` as the compound, how does the Potency read?
A: The Potency was “inactive”.

Q: With `COc1ccc(/C=C/C(=O)NC(=S)NCC2CCCO2)cc1` (stereo not drawn) as the compound, how does the Potency read?
A: Its Potency is inconclusive: 3.16 µM [inhibitor, partial curve, poor fit].

Q: For `Cc1[nH]n(-c2ccccc2)c(=O)c1C(c1cccc([N+](=O)[O-])c1)c1c(C)[nH]n(-c2ccccc2)c1=O`, which Potency is on record?
A: Its Potency is inconclusive: 35.5 µM [inhibitor, single point].

Q: For `COc1cc(CNCc2ccccn2)ccc1OCC(N)=O`, which Potency is on record?
A: Its Potency is inconclusive: 0.73 µM [inhibitor, full curve, poor fit].

Q: Which Potency does the source give for `COc1ccccc1N1CCN(C(c2ccccc2)c2nnnn2CCc2ccccc2)CC1` (stereo not drawn) here?
A: Its Potency is inconclusive: 15.8 µM [inhibitor, single point].

Q: For `COc1ccc(N2CCN(C3CCCN(S(=O)(=O)c4ccccc4)C3)CC2)cc1` (stereo not drawn), which Potency is on record?
A: The Potency was “inactive”.

Q: Which Potency does the source give for `COc1ccccc1NC(=O)c1ccc(-c2ccc(Br)cc2)o1` here?
A: Its Potency is inconclusive: 22.4 µM [inhibitor, single point].

Q: Which Potency does the source give for `CCOC(=O)C1(CC2CCCCO2)CCN(Cc2ccc(OC)cc2F)CC1` (stereo not drawn) here?
A: The Potency was inconclusive: 35.5 µM [inhibitor, single point].

Q: With `COc1ccc(OC)c(NC(=O)COC(=O)Cc2ccc(Br)cc2)c1` as the compound, how does the activity change, negative = inhibition read?
A: The activity change, negative = inhibition was inconclusive: 2.42% [activator].

Q: For `CCc1cc(C(=O)N(CC(C)C)c2c(N)n(Cc3ccccc3)c(=O)[nH]c2=O)sc1C`, which Potency is on record?
A: Its Potency is inconclusive: 3.98 µM [inhibitor, full curve].

Q: For `COc1cc(/C=N/Nc2cc(C)nc(NS(=O)(=O)c3ccc(C)cc3)n2)ccc1O`, which Potency is on record?
A: Its Potency is inconclusive: 35.5 µM [inhibitor, single point].

Q: For `COCCNC(=O)/C(C#N)=C/c1nc(N(C)C)n(-c2ccc(F)cc2)c1Cl`, which Potency is on record?
A: Its Potency is inconclusive: 22.4 µM [inhibitor, single point].

Q: Which Potency does the source give for `CCCNC(=O)c1c(O)c2c([nH]c1=O)CCCC2` here?
A: The Potency was inconclusive: 35.5 µM [activator, single point].

Q: Which Potency does the source give for `CCN(CC)c1ccc(C(=O)OCC(=O)N2CCN(c3ccccc3)CC2)cc1` here?
A: The Potency was inconclusive: 6.31 µM [inhibitor, partial curve, poor fit].

Q: For `Cc1cc(N2CCCC2)nc(SCC(=O)c2ccccc2)n1`, which Potency is on record?
A: The Potency was “inactive”.

Q: With `COCCCn1c(C)c(C(C)=O)cc(NC(=O)c2ccccc2)c1=O` as the compound, how does the Potency read?
A: Its Potency is “inactive”.

Q: Which Potency does the source give for `C(#Cc1ccccc1)C[N+]1(CC#Cc2cccc3ccccc23)CCCC1` here?
A: Its Potency is inconclusive: 0.517 µM [inhibitor, partial curve, poor fit].

Q: With `COc1ccccc1-c1cc(C(F)(F)F)nc(N2CCOCC2)n1` as the compound, how does the Potency read?
A: The Potency was “inactive”.

Q: Which Potency does the source give for `C/C(=N\NC(=O)c1ccc(NS(=O)(=O)c2cccs2)cc1)c1ccc(O)cc1O` here?
A: The Potency was inconclusive: 11.2 µM [inhibitor, partial curve, poor fit].

Q: For `COc1cccc(NC(=O)c2sc(-n3nc(C)c(Cc4ccccc4Cl)c3C)nc2C)c1`, which Potency is on record?
A: The Potency was “inactive”.

Q: Which Potency does the source give for `CC(C)c1ccc(/C=C/C(=O)CCC(=O)O)cc1` here?
A: Its Potency is inconclusive: 11.2 µM [inhibitor, single point].

Q: For `COc1ccc(OCCOC(=O)c2[nH]c(C)c(C(C)=O)c2C)cc1`, which Potency is on record?
A: The Potency was inconclusive: 7.94 µM [inhibitor, partial curve, poor fit].

Q: With `COc1ccc(S(=O)(=O)N2CCCOC2CNC(=O)C(=O)NCCc2ccco2)cc1C` (stereo not drawn) as the compound, how does the Potency read?
A: Its Potency is inconclusive: 3.16 µM [inhibitor, full curve].

Q: For `COc1ccc(CC(=O)NC(C)CCc2ccccc2)cc1` (stereo not drawn), which Potency is on record?
A: Its Potency is inconclusive: 7.94 µM [inhibitor, partial curve, poor fit].

Q: Which Potency does the source give for `Cc1nc(Nc2ccc(S(N)(=O)=O)cc2)sc1C(=O)Nc1ccccc1` here?
A: The Potency was inconclusive: 10 µM [inhibitor, partial curve, poor fit].

Q: Which Potency does the source give for `CCCC(=O)N(c1ccc2oc3c(c2c1)CCCC3)S(=O)(=O)c1ccc(CC)cc1` here?
A: Its Potency is inconclusive: 10 µM [inhibitor, partial curve, poor fit].

Q: Which Potency does the source give for `COc1ccc(NC(=O)CN2CCN(S(=O)(=O)c3ccc(F)cc3)CC2)cc1Cl` here?
A: The Potency was inconclusive: 10 µM [inhibitor, partial curve, poor fit].

Q: With `Cc1cc(N2CCN(C)CC2)nc2ccc(NC(=O)CCC(=O)N3CCN(c4ccc([N+](=O)[O-])cc4)CC3)cc12` as the compound, how does the Potency read?
A: The Potency was “inactive”.

Q: For `Cc1cc(C)c(C#N)c(Nc2ccccc2)n1`, which Potency is on record?
A: The Potency was “inactive”.

Q: With `O=C(CSc1nnc(-c2ccco2)o1)N1CCOCC1` as the compound, how does the Potency read?
A: Its Potency is inconclusive: 29.1 µM [activator, single point].

Q: For `CC(C)(C)OC(=O)NNc1c2ccccc2nc2ccccc12`, which Potency is on record?
A: Its Potency is active: 12.6 µM.

Q: Which Potency does the source give for `CCCN(Cc1ccccc1)C(=S)Nc1ccc(SC(F)F)cc1` here?
A: Its Potency is inconclusive: 35.5 µM [inhibitor, single point].

Q: For `CCOc1ccc(C(C)NC(=O)c2ccccc2OCc2c(C)noc2C)cc1OCC` (stereo not drawn), which Potency is on record?
A: Its Potency is inconclusive: 0.316 µM [inhibitor, partial curve, poor fit].

Q: For `CCOC(=O)c1[nH]c2ccccc2c1NC(=O)c1nonc1C`, which Potency is on record?
A: The Potency was “inactive”.

Q: With `Cc1ccc2c(c1)c1c(n2C)-c2[nH]ncc2CC1` as the compound, how does the Potency read?
A: The Potency was inconclusive: 3.66 µM [activator, single point].

Q: With `CCOC(=O)C1CCCN(c2nc3ccccc3nc2C(C#N)C(=O)OC(C)COC)C1` (stereo not drawn) as the compound, how does the Potency read?
A: The Potency was inconclusive: 35.5 µM [inhibitor, single point].

Q: With `COc1ccc(-c2nnc(SCc3cccnc3)o2)cc1` as the compound, how does the Potency read?
A: Its Potency is inconclusive: 18.3 µM [activator, partial curve].

Q: For `COC(=O)c1c(SC)nc2ccccc2c1OCc1cccc(C)c1`, which Potency is on record?
A: The Potency was “inactive”.

Q: Which Potency does the source give for `O=C(OCc1ccc2c(c1)OCO2)c1cccc(S(=O)(=O)N2CCCCC2)c1` here?
A: The Potency was inconclusive: 0.058 µM [inhibitor, full curve].

Q: Which Potency does the source give for `Oc1ccc(Br)cc1/C=N/Nc1ncc(-c2ccccc2)cn1` here?
A: The Potency was “inactive”.

Q: Which Potency does the source give for `CCCCNC(=O)COC(=O)c1cc(F)c(F)cc1Cl` here?
A: The Potency was “inactive”.

Q: Which Potency does the source give for `O=S(=O)(NCC(c1ccco1)N1CCN(c2ccc(F)cc2)CC1)c1ccc2c(c1)OCCO2` (stereo not drawn) here?
A: Its Potency is inconclusive: 6.31 µM [inhibitor, full curve, poor fit].

Q: For `O=C1CCCC2=C1C(c1ccccc1)NC(=S)N2` (stereo not drawn), which Potency is on record?
A: The Potency was “inactive”.

Q: With `OC(CNc1ncnc2sccc12)c1ccccc1` (stereo not drawn) as the compound, how does the Potency read?
A: The Potency was inconclusive: 7.94 µM [inhibitor, partial curve, poor fit].

Q: With `COc1ccc(OC)c(/C=C/C(=O)N2CCCc3ccccc32)c1` as the compound, how does the Potency read?
A: Its Potency is inconclusive: 35.5 µM [inhibitor, partial curve, poor fit].

Q: With `COc1ccc(/C=N/NC(=O)c2cccc(Br)c2)cc1COc1ccccn1` as the compound, how does the Potency read?
A: The Potency was “inactive”.

Q: Which Potency does the source give for `Cc1cccc(C)c1Nc1nnc(SCc2nc3ccccc3c(=O)[nH]2)s1` here?
A: Its Potency is inconclusive: 20.6 µM [inhibitor, partial curve].

Q: For `CCCCCCC(=O)N/N=C/c1c(O)n(CCCC)c(=S)[nH]c1=O`, which Potency is on record?
A: Its Potency is inconclusive: 35.5 µM [inhibitor, partial curve, poor fit].

Q: For `COC(=O)c1c(C)oc(C)c1S(=O)(=O)NC(C)(C)C`, which Potency is on record?
A: Its Potency is “inactive”.

Q: With `Cc1ccc(CNS(=O)(=O)c2ccc(F)c(C(=O)Nc3ccc(C)c(F)c3)c2)cc1` as the compound, how does the Potency read?
A: Its Potency is inconclusive: 31.6 µM [activator, single point].

Q: For `Cc1ccc(S(=O)(=O)N(CC(=O)Nc2cc(C)ccc2C)C(=O)N2CCN(C)CC2)cc1`, which Potency is on record?
A: Its Potency is “inactive”.

Q: Which Potency does the source give for `CSc1ccccc1OCc1cc(C(=O)N(C)C(C)c2nc(C)cs2)no1` (stereo not drawn) here?
A: The Potency was inconclusive: 0.631 µM [activator, partial curve, poor fit].

Q: For `O=C(OCc1ccccc1)c1cc(S(=O)(=O)N2CCCCC2)ccc1N1CCOCC1`, which Potency is on record?
A: Its Potency is inconclusive: 17.8 µM [inhibitor, single point].

Q: With `Cc1onc(-c2ccccc2)c1C(=O)c1c[nH]c(C(=O)NCc2ccccn2)c1` as the compound, how does the Potency read?
A: The Potency was inconclusive: 10 µM [inhibitor, partial curve, poor fit].

Q: For `CN(C)c1ccc(C(=O)OCC(=O)NC2CCCCC2)cc1`, which Potency is on record?
A: The Potency was inconclusive: 8.91 µM [inhibitor, partial curve].

Q: With `CCOC(=O)c1[nH]c(C)c(CCC(=O)Nc2cc(Cl)ccc2C)c1C` as the compound, how does the Potency read?
A: The Potency was inconclusive: 22.4 µM [activator, single point].

Q: Which Potency does the source give for `CCOC(=O)C1=NN(c2ccc(C)cc2)C2(S1)SC(C(C)=O)=C(C)N2c1ccccc1` (stereo not drawn) here?
A: The Potency was inconclusive: 11.6 µM [inhibitor, partial curve, poor fit].

Q: For `CCCCCC(=O)Nc1ccc(C(=O)CN2C(=O)NC3(CCCCCC3)C2=O)cc1`, which Potency is on record?
A: Its Potency is “inactive”.

Q: For `Fc1ccccc1/C=N/Nc1ncnc2ccccc12`, which Potency is on record?
A: The Potency was inconclusive: 0.562 µM [activator, partial curve, poor fit].

Q: For `CCOc1ccc(-c2nc(Cn3c(=O)cc(-c4ccccc4)c4c(C)nn(C)c43)c(C)o2)cc1OC`, which Potency is on record?
A: The Potency was inconclusive: 2.51 µM [inhibitor, single point].
